Reference: PubChem BioAssay AID1259405 (NCATS, 2018)

- Test: 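Silenced genes that increase secreted GFP made by CHO cells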 (primary screen)
- System: Chinese hamster CHO-K1 ovary cells with stable secreted eGFP expression
- Reagent: single siRNA against mouse genes, 0.8 pmol siRNA per well (2 µl of 400 nM stock)
- Time to read-out: 3 days
- Measurement: 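Per-well intracellular GFP measured by laser scanning cytometry, plus viability from ATP luminescence, each relative to plate median of non-targeting control wells, in %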
- Reading the numbers: GFP, % of control: higher = more GFP per well, higher productivity; viability (ATP), % of control: higher = more viable cells (more ATP)
- Rule for the call: 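a knock-down is called active if GFP reaches 120% or more of non-targeting control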
The deposit covers about 50,000 reagents; shown is a random part of them. Of all reagents, about 4,000 (8%) were called active. 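Mouse siRNA library applied to hamster cells; one well for each siRNA.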 The numbers tell different reagents against one gene apart. No sequences are given here.

The first 2 entries as a preview:
Target gene	reagent	GFP, % of control	viability (ATP), % of control	Call
Dipk1b	1	93.3	66.1	inactive
Dipk1b	2	92.5	86.4	inactive

The list itself, from the first entry:
Target gene	reagent	GFP, % of control	viability (ATP), % of control	Call
Dipk1b	1	93.3	66.1	inactive
Dipk1b	2	92.5	86.4	inactive
Dipk1b	3	82.3	62.4	inactive
Psma7	1	21.7	7.55	inactive
Psma7	2	68.7	54.9	inactive
Psma7	3	29.8	6.99	inactive
Rnase2b	1	96.7	47.8	inactive
Rnase2b	2	83.5	81.7	inactive
Rnase2b	3	71.2	62.8	inactive
Ecel1	1	67.1	82.5	inactive
Ecel1	2	105	70.9	inactive
Ecel1	3	132	85.2	active
Or5b112	1	60.7	69.3	inactive
Or5b112	2	84	79.5	inactive
Or5b112	3	31.8	38.8	inactive
Svep1	1	112	65.1	inactive
Svep1	2	75.2	36.9	inactive
Svep1	3	74.6	60.8	inactive
Nfya	1	54.9	84.8	inactive
Nfya	2	69.8	64.5	inactive
Nfya	3	74.7	111	inactive
Or5b111	1	61.7	68.1	inactive
Or5b111	2	81	111	inactive
Or5b111	3	78.2	96	inactive
Ctsh	1	102	112	inactive
Ctsh	2	51.3	55.4	inactive
Ctsh	3	78.8	70.8	inactive
Rhof	1	94.5	74.3	inactive
Rhof	2	122	84.6	active
Rhof	3	66.5	62.2	inactive
Vash2	1	80	39.9	inactive
Vash2	2	66.1	62.4	inactive
Vash2	3	115	138	inactive
Rcor1	1	99.9	91.2	inactive
Rcor1	2	70.3	68.2	inactive
Rcor1	3	117	128	inactive
